Results from PubChem BioAssay AID504467 (National Center for Advancing Translational Sciences (NCATS), 2011).
About 7,700 (2.3%) of roughly 330,000 compounds were called active. Inconclusive means that the source gave no clear call. Such entries were picked first, then a sample of the others. The call rests on the fitted dose curve; in most records, active means well fitted inhibition curve with a large enough effect; inconclusive means small, poorly fitted or top-dose-only effect, or effect the other way; inactive means flat fitted curve, though single readings scatter. A potency beside an inconclusive call is a rough fit, not a confirmed value.

test: qHTS screen for small molecules that inhibit ELG1-dependent DNA repair in human embryonic kidney (HEK293T) cells expressing luciferase-tagged ELG1; settings: HEK293T ELG1-luciferase reporter, luminescence, 16 h, DNA damage induced by 5-fluorouridine; series mostly up to 46.1 µM; further: nearly all actives have a fitted effect of over 55% in size
In short: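 Overnight (16 hr) co-exposure of 2,000 cells/well to 5-fluorouridine and compound at 37 °C preceded detection. Luciferase was quantified via ONE-Glo luminescence; loss of signal denotes inhibition.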
Potency means the concentration at half of the fitted maximal effect.

Structure (SMILES)	Potency
COc1ccc(/C=C2/SC(=O)N(CCNC(=O)CC(NC(C)=O)c3ccccc3)C2=O)cc1 (stereo not drawn)	inconclusive: 18.3 µM [activator, single point]
O=C(NC1(Cc2ccccc2)CCN(CCCc2ccccc2)C1=O)c1ccccc1 (stereo not drawn)	inconclusive: 20.6 µM [inhibitor, single point]
Cc1ccc(N2C(=O)c3cccc4c(N5CCN(C)CC5)ccc(c34)C2=O)c2cccnc12	inconclusive: 25.9 µM [inhibitor, single point]
NC(=S)N=Nc1c(O)n(Cc2ccccc2)c2ccccc12	inconclusive: 18.4 µM [activator, single point]
CCSc1nnc(NC(=O)c2cc(C)oc2C)s1	inconclusive: 16.4 µM [activator, partial curve]
O=C1C2C(C(=O)N1c1ccc3c(c1)OCO3)C1C=CC2C12CC2 (stereo not drawn)	inconclusive: 20.6 µM [activator, single point]
COc1ccc(N2C(=O)CS/C2=C\[N+](=O)[O-])cc1	inconclusive: 1.3 µM [inhibitor, single point]
C[C@H](NC(=O)c1nc[nH]c1C(=O)NCCCCCNC(=O)OC(C)(C)C)c1ccccc1	inconclusive: 20.6 µM [inhibitor, single point]
Nc1ccc2nc(SCc3cccc(F)c3)sc2c1	inconclusive: 16.4 µM [activator, partial curve]
CCOC(=O)c1ccccc1OC(=O)CS(=O)c1ccccc1[N+](=O)[O-] (stereo not drawn)	inactive
CC(C)[C@H](NC(=O)Cc1ccccc1)C(=O)OCc1cc(=O)n2c(n1)sc1ccccc12	inactive
CCCCc1c(C)nc2ccc(Br)cc2c1SCCC#N	active: 18.4 µM
CCOC(=O)c1c(C)[nH]c(C(=O)COC(=O)CNC(=O)c2ccc(Br)cc2)c1C	inconclusive: 25.9 µM [activator, partial curve, poor fit]
COc1ccc2c(c1)c(C(=O)N/N=C/c1ccc(O)c(O)c1)c(C)n2C	inactive
Cc1cc(Oc2ccc(-c3ccccc3)cc2)n2ncnc2n1	inconclusive: 29.1 µM [activator, single point]
Oc1ccccc1CNc1ncc(Br)cc1Br	inconclusive: 20.6 µM [activator, single point]
O=C(Cc1cccs1)N(Cc1cccs1)C1(C(=O)NC2CCCCC2)CCCCC1	inactive
CCOCC(=O)Nc1nc2ccccc2s1	inconclusive: 18.4 µM [activator, partial curve]
CCOC(=O)c1c(-c2ccc(OC)cc2)oc2cc(Br)c(O)cc12	inactive
Cn1c(SCc2nc3ccccc3s2)nnc1-c1cccs1	inconclusive: 25.9 µM [activator, single point]
Oc1ccccc1OCCOc1ccccc1OCCOc1ccccc1O	inconclusive: 18.3 µM [inhibitor, single point]
COc1ccc(C)cc1NC(=S)NC(C)c1ccc(OC)c(OC)c1 (stereo not drawn)	inconclusive: 18.3 µM [inhibitor, single point]
COc1ccccc1N1CCN(C(=O)c2ccncc2)CC1	inactive
C[C@H](NC(=O)[C@@H]1CSC2c3ccccc3C(=O)N21)C(=O)NCCc1ccccc1 (stereo partly drawn)	inconclusive: 10.3 µM [activator, partial curve, poor fit]
COc1ccc(-c2nn(-c3ccccc3)cc2C(=O)Nc2nccs2)cc1	active: 6.51 µM

Structure (SMILES)	Potency
CC(=O)c1sc(N/N=C\c2ccc(N(C)C)cc2)nc1C	inconclusive: 12.6 µM [activator, partial curve, poor fit]
c1ccc2c(c1)CCCN2Cc1nnnn1CC1CCCO1 (stereo not drawn)	inconclusive: 29.1 µM [activator, single point]
COCCN(CCOC)Cc1c(O)ccc2c1O/C(=C\c1ccc(C)o1)C2=O	inactive
COCCNC(=O)CCCn1c(=O)c2ccccc2n(Cc2ccccc2C#N)c1=O	inactive
N#CC1=C(N)NC(SCC(=O)Nc2ccccc2)=C(C#N)C12CCCC2	inconclusive: 25.9 µM [inhibitor, single point]
CCOC(=O)C1=C(C)Nc2nc3ccccc3n2C1c1cccs1 (stereo not drawn)	inactive
O=c1c2ccccc2[nH]c(=S)n1CCN1CCN(Cc2ccccc2)CC1	inactive
CCN1C(=O)c2ccc(C(=O)NCc3ccccc3)cc2C1=O	inactive
O=S(=O)(c1ccccc1)N1CCN(c2cc(-c3ccccc3)nc3ncnn23)CC1	inconclusive: 18.4 µM [inhibitor, single point]
Cc1ccc(C(=O)NNC(=O)CCCN2C(=O)/C(=C/c3ccccc3Cl)SC2=S)cc1	inactive
CCOC(=O)Cc1csc(NC(=O)c2cc(-c3ccncc3)nc3ccccc23)n1	inconclusive: 29.1 µM [inhibitor, single point]
O=C(N=c1nc2ccccn2s1)c1ccccc1	inconclusive: 0.164 µM [activator, full curve, poor fit]
Cc1ccc(CCC(=O)Nc2ccc([N+](=O)[O-])cc2)o1	inconclusive: 10.3 µM [inhibitor, partial curve]
CCCC1=NN(C(=O)Cc2ccc([N+](=O)[O-])cc2)C(O)(C(F)(F)F)C1 (stereo not drawn)	inactive
CC1(C)CC(=O)C2=C(C1)c1c(ccc3ccccc13)NC2c1ccc(C(=O)O)cc1 (stereo not drawn)	inactive
COc1ccc(C(=O)/C=C/Nc2cccc(O)c2)cc1	inconclusive: 2.91 µM [activator, partial curve]
C/C(=N\NC(=O)C(N)=O)c1cccc([N+](=O)[O-])c1	inactive
COc1cc(C2NC(=O)CCC2[N+](=O)[O-])cc(OC)c1OC (stereo not drawn)	inconclusive: 29.1 µM [inhibitor, single point]
O=c1c2ccccc2sn1-c1ccc(S(=O)(=O)N2CCCC2)cc1	inactive
Cc1ccc2c(C)nc(NC3=NCN(CCc4ccccc4)CN3)nc2c1	inconclusive: 3.26 µM [inhibitor, partial curve, poor fit]
COc1ccc(/C=C/C(=O)NC(=S)Nc2ccccc2C(=O)NC2CCCCC2)cc1	inconclusive: 5.17 µM [activator, single point]
CC(=O)C1=NN(c2ccccc2)C(c2ccc3c(c2)OCO3)N1c1ccccc1 (stereo not drawn)	inconclusive: 13 µM [activator, partial curve]
O=C(c1ccccc1)c1ccc(OCC(O)CN2CCN(Cc3ccccc3)CC2)cc1 (stereo not drawn)	inactive
Cc1nc(-c2ccc(S(=O)(=O)Nc3cccc(S(N)(=O)=O)c3)s2)cs1	inactive
Cc1ccc(-c2cc(C(=O)N3CCCCCC3)no2)cc1	inconclusive: 6.51 µM [activator, partial curve]

Structure (SMILES)	Potency
CC(C)CC(=O)NN(C)c1nc(-c2ccccc2)nnc1C(F)(F)F	inactive
NS(=O)(=O)c1ccc(CCNC(=O)CSCC(=O)Nc2ccc(Cl)cc2)cc1	inactive
COc1cc(/C=C/C(=O)OC2CC3CCC2(C)C3(C)C)ccc1O (stereo not drawn)	inconclusive: 32.6 µM [activator, partial curve, poor fit]
Cc1ccc(/C=N/N(C)C2=NS(=O)(=O)c3ccccc32)o1	inactive
Cn1c(N)c(C(=O)COC(=O)C2(c3ccc(Cl)cc3)CCCC2)c(=O)n(C)c1=O	inconclusive: 29.1 µM [inhibitor, single point]
CSc1n[nH]c(NCc2ccc(C)cc2)n1	inconclusive: 20.6 µM [activator, partial curve]
CCOC(=O)C1=C(C)Nc2sc(C(=O)c3ccc(F)cc3)c(N)c2C1c1ccc(C(=O)OC)cc1 (stereo not drawn)	active: 5.17 µM
Cc1nn(Cc2ccccc2Cl)c(C)c1C(=O)NCCN1C(=O)S/C(=C\c2ccccc2)C1=O	inactive
CC(=O)N1c2ccc(S(=O)(=O)NCCC(=O)NC3CCCC(C)C3C)cc2CC1C (stereo not drawn)	active: 9.2 µM
COC(=O)c1sc(N)c(C(=O)OC)c1COC(=O)C1CC(=O)N(Cc2ccco2)C1 (stereo not drawn)	active: 8.2 µM
O=C(N/N=C/c1ccco1)c1ccc(N2CCCC2=O)cc1	inconclusive: 16.4 µM [activator, partial curve]
FC(F)(F)c1nnc(Nc2ccc(Cl)cc2)s1	active: 10.3 µM
O=C(Nc1ccc(Br)cc1)C(c1ccccc1)c1ccccc1	inactive
O=C(/C=C/c1ccccc1[N+](=O)[O-])OCC(=O)N1CCCC1	inconclusive: 20.6 µM [activator, single point]
COc1ccc(C(=O)NCc2nnc(SCC(=O)Nc3nc4ccc(C)cc4s3)o2)cc1OC	inconclusive: 18.4 µM [activator, partial curve]
CCCCOC(=O)CCn1[nH]c(=O)c2ccccc2c1=O	inactive
Cc1occc1C(=O)NN=C1C2CC3CC(C2)CC1C3	inconclusive: 20.6 µM [activator, partial curve]
Cc1c(CC(=O)N2CCN(C(=O)C3COc4ccccc4O3)CC2)c(=O)oc2c(C)c(O)ccc12 (stereo not drawn)	active: 0.58 µM
CCN(CC)S(=O)(=O)c1cc(NC(=O)CNc2cccc(S(=O)(=O)N3CCCC3)c2)ccc1C	inconclusive: 7.3 µM [inhibitor, partial curve]
CCCCNC(=O)C(C)N(CCN(C)C)C(=O)CCCN1C(=O)NC(c2ccc([N+](=O)[O-])cc2)C(C(=O)OCc2ccccc2)=C1C (stereo not drawn)	inactive
O=C1CCCC2=C1Sc1ccccc1N2	inconclusive: 11.6 µM [inhibitor, partial curve, poor fit]
Cc1cc(C)nc(SCc2n[nH]c(=S)n2C)n1	inconclusive: 29.1 µM [activator, single point]
COC(=O)c1sc(NC(=S)NC(=O)c2cccc(C)c2)nc1C	inconclusive: 2.91 µM [activator, full curve]
